We go through one molecule from patent US8557300B2 (priority 2005, dated 2013).

Read-outs that look alike come from different tables or passages of the source.

Take `O=NO` [NO2^−, nitrite]: the NO level generated reads like this: (15 mM NO2^− in CF ASL, pH 6.43) 562 nM; (15 mM NO2^− in LB at pH 6.5) 489 nM.
